Values of other authors, collected in patent US10940187B2, “Method of treatment of schizophreniform disorder” (Curemark, LLC, priority 2011, dated 2021).
At least one structure is not confirmed: it was looked up by name or label, or the drawing left a doubt. Some entries repeat one wording, which the source may state once for all of them.

Experiments:
schizophrenic patients = details: Schizophrenia
ckr mice = details: dose dependent effects

Structure (SMILES): Cc1cc2c(s1)Nc1ccccc1N=C2N1CCN(C)CC1 [olanzapine]
- Response to Antipsychotics (schizophrenic patients): Yes
- Response to Antipsychotics (ckr mouse; Ckr Mice): Yes
- lateralized circling behavior and aberrant postural asymmetry (ckr mouse; ckr mouse): alleviate
- spontaneous hyperactivity of ckr mice (ckr mice): dose-dependently suppressed
